{"source": "paper doi:10.1101/2022.11.28.518246", "molecular_target": "T1, HA-tagged iR2-1-374 (human) (UniProt Q6PJF5)", "T1 sequence": "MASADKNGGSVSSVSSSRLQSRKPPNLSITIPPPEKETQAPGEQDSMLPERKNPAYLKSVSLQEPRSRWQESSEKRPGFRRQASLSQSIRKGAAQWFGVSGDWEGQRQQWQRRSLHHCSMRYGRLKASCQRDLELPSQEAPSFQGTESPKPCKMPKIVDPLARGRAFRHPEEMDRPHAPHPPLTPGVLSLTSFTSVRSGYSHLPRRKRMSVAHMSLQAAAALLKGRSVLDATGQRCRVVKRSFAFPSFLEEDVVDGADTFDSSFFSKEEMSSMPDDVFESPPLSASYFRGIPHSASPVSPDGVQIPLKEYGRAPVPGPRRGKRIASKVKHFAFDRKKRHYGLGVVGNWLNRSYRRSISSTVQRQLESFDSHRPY", "test": "co-IP", "note": "No constants are given. Whether binding was seen depends on the method and setting. In cells and extracts the contact can be indirect. A result given as binding can be weak or reduced; the word gives no strength. Where a sequence is shown, tags or fusion partners need not be part of it.", "data": [{"substance": "transcription factor IID (human (endogenous in HEK293T))", "values": [{"measurement": "binding", "value": "binds"}]}]}
